# The supplement of paper PMC8728848
# This is one part of the list.
# Legend:
# Experiment in all cases: glycan array binding signal (z-score within array); higher = stronger binding
# Settings in all cases: glycan notation: IUPAC condensed, linker removed
# [1] = molecular target: GlcNAc(a1-6)Gal(b1-4)GlcNAc
# Method in brief: (§1)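 The binding signal is a Z-score computed within each array. Data were drawn from 3228 arrays in the Consortium for Functional Glycomics database, restricted to those with a known protein sequence. Scores were averaged over arrays of the same protein sequence at different concentrations or buffers, and over linkers, and negative values can be taken as non-binding.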
# [2] = molecular target: GlcNAc(b1-2)Gal(b1-3)GalNAc
# Method in brief: as §1
# [3] = molecular target: GlcNAc(b1-2)Man(a1-3)[GlcNAc(b1-2)Man(a1-6)]Man(b1-4)GlcNAc(b1-4)GlcNAc
# Method in brief: as §1
# [4] = molecular target: GlcNAc(b1-2)Man(a1-3)[GlcNAc(b1-2)Man(a1-6)]Man(b1-4)GlcNAc(b1-4)[Fuc(a1-6)]GlcNAc
# Method in brief: as §1
# [5] = molecular target: GlcNAc(b1-2)Man(a1-3)[GlcNAc(b1-4)][GlcNAc(b1-2)Man(a1-6)]Man(b1-4)GlcNAc(b1-4)GlcNAc
# Method in brief: as §1
# [6] = molecular target: GlcNAc(b1-2)Man(a1-3)[GlcNAc(b1-4)][GlcNAc(b1-2)Man(a1-6)]Man(b1-4)GlcNAc(b1-4)[Fuc(a1-6)]GlcNAc
# Method in brief: as §1
# [7] = molecular target: GlcNAc(b1-2)[GlcNAc(b1-4)]Man(a1-3)[GlcNAc(b1-2)Man(a1-6)]Man(b1-4)GlcNAc(b1-4)GlcNAc
# Method in brief: as §1
# [8] = molecular target: GlcNAc(b1-2)[GlcNAc(b1-4)]Man(a1-3)[GlcNAc(b1-4)][GlcNAc(b1-2)Man(a1-6)]Man(b1-4)GlcNAc(b1-4)GlcNAc
# Method in brief: as §1
# [9] = molecular target: GlcNAc(b1-2)[GlcNAc(b1-4)]Man(a1-3)[GlcNAc(b1-4)][GlcNAc(b1-2)[GlcNAc(b1-6)]Man(a1-6)]Man(b1-4)GlcNAc(b1-4)GlcNAc
# Method in brief: as §1
# [10] = molecular target: GlcNAc(b1-2)[GlcNAc(b1-4)]Man(a1-3)[GlcNAc(b1-4)][GlcNAc(b1-2)[GlcNAc(b1-6)]Man(a1-6)]Man(b1-4)GlcNAc(b1-4)[Fuc(a1-6)]GlcNAc
# Method in brief: as §1
# [11] = molecular target: GlcNAc(b1-2)[GlcNAc(b1-6)]Man(a1-6)[GlcNAc(b1-2)Man(a1-3)]Man(b1-4)GlcNAc(b1-4)GlcNAc
# Method in brief: as §1
# [12] = molecular target: GlcNAc(b1-2)[GlcNAc(b1-6)]Man(a1-6)[GlcNAc(b1-2)Man(a1-3)]Man(b1-4)GlcNAc(b1-4)[Fuc(a1-6)]GlcNAc
# Method in brief: as §1
# [13] = molecular target: GlcNAc(b1-2)[GlcNAc(b1-6)]Man(a1-6)[GlcNAc(b1-4)][GlcNAc(b1-2)Man(a1-3)]Man(b1-4)GlcNAc(b1-4)GlcNAc
# Method in brief: as §1
# GlcNAc(b1-3)Fuc = molecular target: GlcNAc(b1-3)Fuc
# Method in brief: as §1
# GlcNAc(b1-3)Gal = molecular target: GlcNAc(b1-3)Gal
# Method in brief: as §1
# [14] = molecular target: GlcNAc(b1-3)Gal(b1-3)GalNAc
# Method in brief: as §1
# GlcNAc(b1-3)Gal(b1-4)Glc = molecular target: GlcNAc(b1-3)Gal(b1-4)Glc
# Method in brief: as §1
# [15] = molecular target: GlcNAc(b1-3)Gal(b1-4)GlcNAc
# Method in brief: as §1
# [16] = molecular target: GlcNAc(b1-3)Gal(b1-4)GlcNAc(b1-2)Man(a1-3)[GlcNAc(b1-3)Gal(b1-4)GlcNAc(b1-2)Man(a1-6)]Man(b1-4)GlcNAc(b1-4)GlcNAc
# Method in brief: as §1
# [17] = molecular target: GlcNAc(b1-3)Gal(b1-4)GlcNAc(b1-2)Man(a1-3)[GlcNAc(b1-3)Gal(b1-4)GlcNAc(b1-2)Man(a1-6)]Man(b1-4)GlcNAc(b1-4)[Fuc(a1-6)]GlcNAc
# Method in brief: as §1
# [18] = molecular target: GlcNAc(b1-3)Gal(b1-4)GlcNAc(b1-2)[GlcNAc(b1-3)Gal(b1-4)GlcNAc(b1-6)]Man(a1-6)[GlcNAc(b1-3)Gal(b1-4)GlcNAc(b1-2)Man(a1-3)]Man(b1-4)GlcNAc(b1-4)GlcNAc
# Method in brief: as §1
# [19] = molecular target: GlcNAc(b1-3)Gal(b1-4)GlcNAc(b1-3)Gal(b1-4)GlcNAc
# Method in brief: as §1
# [20] = molecular target: GlcNAc(b1-3)Gal(b1-4)GlcNAc(b1-3)Gal(b1-4)GlcNAc(b1-2)Man(a1-3)[GlcNAc(b1-3)Gal(b1-4)GlcNAc(b1-3)Gal(b1-4)GlcNAc(b1-2)Man(a1-6)]Man(b1-4)GlcNAc(b1-4)GlcNAc
# Method in brief: as §1
# [21] = molecular target: GlcNAc(b1-3)Gal(b1-4)GlcNAc(b1-3)Gal(b1-4)GlcNAc(b1-2)Man(a1-3)[GlcNAc(b1-3)Gal(b1-4)GlcNAc(b1-3)Gal(b1-4)GlcNAc(b1-2)Man(a1-6)]Man(b1-4)GlcNAc(b1-4)[Fuc(a1-6)]GlcNAc
# Method in brief: as §1
# [22] = molecular target: GlcNAc(b1-3)Gal(b1-4)GlcNAc(b1-3)Gal(b1-4)GlcNAc(b1-2)[GlcNAc(b1-3)Gal(b1-4)GlcNAc(b1-3)Gal(b1-4)GlcNAc(b1-6)]Man(a1-6)[GlcNAc(b1-3)Gal(b1-4)GlcNAc(b1-3)Gal(b1-4)GlcNAc(b1-2)Man(a1-3)]Man(b1-4)GlcNAc(b1-4)[Fuc(a1-6)]GlcNAc
# Method in brief: as §1
# [23] = molecular target: GlcNAc(b1-3)Gal(b1-4)GlcNAc(b1-3)Gal(b1-4)GlcNAc(b1-3)Gal(b1-4)GlcNAc(b1-2)Man(a1-3)[GlcNAc(b1-3)Gal(b1-4)GlcNAc(b1-3)Gal(b1-4)GlcNAc(b1-3)Gal(b1-4)GlcNAc(b1-2)Man(a1-6)]Man(b1-4)GlcNAc(b1-4)GlcNAc
# Method in brief: as §1
# [24] = molecular target: GlcNAc(b1-3)Gal(b1-4)GlcNAc(b1-3)Gal(b1-4)GlcNAc(b1-3)Gal(b1-4)GlcNAc(b1-2)Man(a1-3)[GlcNAc(b1-3)Gal(b1-4)GlcNAc(b1-3)Gal(b1-4)GlcNAc(b1-3)Gal(b1-4)GlcNAc(b1-2)Man(a1-6)]Man(b1-4)GlcNAc(b1-4)[Fuc(a1-6)]GlcNAc
# Method in brief: as §1
# [25] = molecular target: GlcNAc(b1-3)Gal(b1-4)GlcNAc(b1-3)Gal(b1-4)GlcNAc(b1-3)Gal(b1-4)GlcNAc(b1-2)[GlcNAc(b1-3)Gal(b1-4)GlcNAc(b1-3)Gal(b1-4)GlcNAc(b1-3)Gal(b1-4)GlcNAc(b1-6)]Man(a1-6)[GlcNAc(b1-3)Gal(b1-4)GlcNAc(b1-3)Gal(b1-4)GlcNAc(b1-3)Gal(b1-4)GlcNAc(b1-2)Man(a1-3)]Man(b1-4)GlcNAc(b1-4)[Fuc(a1-6)]GlcNAc
# Method in brief: as §1
# [26] = molecular target: GlcNAc(b1-3)Gal(b1-4)GlcNAc(b1-3)Gal(b1-4)GlcNAc(b1-3)Gal(b1-4)GlcNAc(b1-3)Gal(b1-4)GlcNAc(b1-2)Man(a1-3)[GlcNAc(b1-3)Gal(b1-4)GlcNAc(b1-3)Gal(b1-4)GlcNAc(b1-3)Gal(b1-4)GlcNAc(b1-3)Gal(b1-4)GlcNAc(b1-2)Man(a1-6)]Man(b1-4)GlcNAc(b1-4)GlcNAc
# Method in brief: as §1
# [27] = molecular target: GlcNAc(b1-3)Gal(b1-4)GlcNAc(b1-3)Gal(b1-4)GlcNAc(b1-3)Gal(b1-4)GlcNAc(b1-3)Gal(b1-4)GlcNAc(b1-2)Man(a1-3)[GlcNAc(b1-3)Gal(b1-4)GlcNAc(b1-3)Gal(b1-4)GlcNAc(b1-3)Gal(b1-4)GlcNAc(b1-3)Gal(b1-4)GlcNAc(b1-2)Man(a1-6)]Man(b1-4)GlcNAc(b1-4)[Fuc(a1-6)]GlcNAc
# Method in brief: as §1
binder,measurement,setting,value
"CcfD (Bacteroides vulgatus), A6KYX8 (protein) MKYKNYFKSIIYLALGAFTLGSCEDFLDRQEDEKLTFDKIWESRNTTQQYWLNAMSFLPNENGSLQGDTEPYLGASDECTIAYDRQYRWINFGTWNPSQVPYYKMDHYYKGIRECNIFLQNVYKCSDPLVTKDQLDEWYWQTRFARAYYYFLMMRDYGPVFLLGDDLLDFTASTEELYRPRNTWDQCVNYVVSEMTQCAESGVVLQQSDLPAAKWGLATVGTCHAVISRLLLYSARPLFNGNKLYSTVKNPDAPDFPELSGVKLFPELDNTKWQKAAEAAKKLIDNPCYELYRAGNDNPYEDYYGVTHETWNKELIWTDRYNGLFSWGVGTVPTGVAGTAYGAVGPTQALVDAYAMNTGWYPITGYEADGTPIVEPLSGYELASELEKSSWIYPSGGWSNKADFEIEAPNMYKDREPRFYVTVFFGGNQWLHGNSATSISFAKGGNGNKSHDYPKSGYLCNRFYDHKLNSSEGQWGNITFPVFRLGEIYLNFIEAVLECKKNGVALDPSYEALAMEKWADLRKRAGLDPITSIYGQVSTEELIQLCRKERQIELAFERHRYFDTRTWMIATQTDNGKMYGMNTSCPLDAGMKGTETPDGFWERTAFETRVFQNKHYLYPFSQRELDRNKLLTQNYGW",glycan array binding signal (z-score),[1],-0.592
same,glycan array binding signal (z-score),[2],-0.556
same,glycan array binding signal (z-score),[3],0.28
same,glycan array binding signal (z-score),[4],0.979
same,glycan array binding signal (z-score),[5],-0.647
same,glycan array binding signal (z-score),[6],-0.83
same,glycan array binding signal (z-score),[7],-1.03
same,glycan array binding signal (z-score),[8],-0.749
same,glycan array binding signal (z-score),[9],-0.531
same,glycan array binding signal (z-score),[10],-0.175
same,glycan array binding signal (z-score),[11],-0.663
same,glycan array binding signal (z-score),[12],1.94
same,glycan array binding signal (z-score),[13],-0.683
same,glycan array binding signal (z-score),GlcNAc(b1-3)Fuc,-0.327
same,glycan array binding signal (z-score),GlcNAc(b1-3)Gal,-1.03
same,glycan array binding signal (z-score),[14],-0.264
same,glycan array binding signal (z-score),GlcNAc(b1-3)Gal(b1-4)Glc,-0.881
same,glycan array binding signal (z-score),[15],-1.04
same,glycan array binding signal (z-score),[16],1.97
same,glycan array binding signal (z-score),[17],0.811
same,glycan array binding signal (z-score),[18],3.38
same,glycan array binding signal (z-score),[19],-0.947
same,glycan array binding signal (z-score),[20],0.694
same,glycan array binding signal (z-score),[21],1.02
same,glycan array binding signal (z-score),[22],0.491
same,glycan array binding signal (z-score),[23],-0.612
same,glycan array binding signal (z-score),[24],0.775
same,glycan array binding signal (z-score),[25],0.232
same,glycan array binding signal (z-score),[26],0.023
same,glycan array binding signal (z-score),[27],0.877

# Reformatted with bars between the fields: entries from further up.
binder | measurement | setting | value
CcfD (Bacteroides vulgatus), A6KYX8 (protein) MKYKNYFKSIIYLALGAFTLGSCEDFLDRQEDEKLTFDKIWESRNTTQQYWLNAMSFLPNENGSLQGDTEPYLGASDECTIAYDRQYRWINFGTWNPSQVPYYKMDHYYKGIRECNIFLQNVYKCSDPLVTKDQLDEWYWQTRFARAYYYFLMMRDYGPVFLLGDDLLDFTASTEELYRPRNTWDQCVNYVVSEMTQCAESGVVLQQSDLPAAKWGLATVGTCHAVISRLLLYSARPLFNGNKLYSTVKNPDAPDFPELSGVKLFPELDNTKWQKAAEAAKKLIDNPCYELYRAGNDNPYEDYYGVTHETWNKELIWTDRYNGLFSWGVGTVPTGVAGTAYGAVGPTQALVDAYAMNTGWYPITGYEADGTPIVEPLSGYELASELEKSSWIYPSGGWSNKADFEIEAPNMYKDREPRFYVTVFFGGNQWLHGNSATSISFAKGGNGNKSHDYPKSGYLCNRFYDHKLNSSEGQWGNITFPVFRLGEIYLNFIEAVLECKKNGVALDPSYEALAMEKWADLRKRAGLDPITSIYGQVSTEELIQLCRKERQIELAFERHRYFDTRTWMIATQTDNGKMYGMNTSCPLDAGMKGTETPDGFWERTAFETRVFQNKHYLYPFSQRELDRNKLLTQNYGW | glycan array binding signal (z-score) | [5] | -0.647
same | glycan array binding signal (z-score) | [27] | 0.877
